Library screening results

Data taken from ChEMBL document CHEMBL3988442, “University of Dundee, Small-Polar-MMV Screening Library” (2021).

A: 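Whole-cell assay for inhibitors of Mycobacterium tuberculosis growth, labelled Cornell in the record; the read-out is not stated. The concentration is filed as 10 mM, unlikely as a test dose, so the dose is not known. Higher means stronger inhibition (inferred from two other growth screens of the library). Size under these conditions: about 53,000 compounds, about 900 of them at 50% or above in at least one test.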
B: 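Assay on Mycobacterium tuberculosis, filed only as a heat shock assay from Cornell; the read-out is not stated. The concentration is filed as 10 mM, unlikely as a test dose, so the dose is not known. Direction is inferred from retests: higher values go with stronger inhibition. Size under these conditions: about 69,000 compounds, about 930 of them at 50% or above in at least one test.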

Values are the deposited “Percent Effect”, in %.
How 0% and 100% were set is not recorded. Most values in the screen are low, and negative values occur.
The compounds are a random part of those screened.
A dash means the value is not listed here; it may have been measured.

| structure | A | B |
|---|---|---|
| `O=C(O)C(F)(F)F.O=S(=O)(c1cccs1)N1CCCn2nnc(CN3CCCCC3)c2C1` | 19.79 | 5.05 |
| `CCOC(=O)[C@H]1[C@@H](O)C(=O)N(C)C12CCN(C(=O)OC)CC2` | -39.94 | -37 |
| `Cc1cnn(CC2CCCCN2C(=O)c2ccccc2-n2cccn2)c1` (configuration not stated) | -10.01 | -9.317 |
| `Cc1nnc(Nc2cccc(C3CCCN(Cc4ncc[nH]4)C3)n2)s1` (configuration not stated) | -14.35 | -16.9 |
| `CO[C@H]1C[C@@H](O)C12CCN(CCOc1ccc(Cl)cc1)CC2` | 10.04 | 11.75 |
| `COc1ccc(NC(=O)Cc2c(C)nc3c(c2C)c(=O)[nH]n3C)cn1` | 24.96 | 0.9229 |
| `Cc1nc(C)n(CC2CCCN(CC(=O)Nc3ccncc3)C2)n1` (configuration not stated) | - | 14.55 |
| `CC(CCc1ccco1)NC(=O)Nc1cc(C(F)(F)F)c[nH]c1=O` (configuration not stated) | 102.9 | 102.3 |
| `O=C(O)C(F)(F)F.[H][C@@]12CCN(c3nnc(C)s3)C[C@]1([H])O[C@H](C(=O)NC1CCCC1)C2` | -17.08 | -2.651 |
| `[H][C@@]12CCN(C[C@@H]1CN1CCc3ccccc31)[C@@H](CNC(=O)COC)C2` | 1.737 | -22.38 |
| `O=C(c1cn(Cc2ccccc2)c2ncccc12)N1CCCCC1` | 11.5 | 18.65 |
| `CCOC(=O)c1cnn(C2CCN(C(=O)CC(C)(C)C)CC2)c1N` | -8.649 | -2.564 |
| `Cc1ccc(NC2CCN(C(=O)c3ccc(Cl)cc3F)CC2)nn1` | -15.21 | -13.54 |
| `C[C@@H]1CN(c2ccc(C#N)cn2)CC[C@@]1(O)C1CCOCC1` | -18.71 | -2.725 |
| `COCc1ccc(C(=O)N2CCC(c3cc4ncc(C)nc4[nH]3)C2)cc1` (configuration not stated) | 18.93 | 6.722 |
| `[H][C@]12CC[C@]([H])(CN(Cc3ccncc3)C1)N(S(C)(=O)=O)C2` | -8.075 | -0.4425 |
| `NC(=O)c1cc(C2CCCN(CCOc3cccc(F)c3)C2)n[nH]1` (configuration not stated) | - | -7.526 |
| `COc1cc(C(=O)NS(=O)(=O)c2cccc(C#N)c2)ccc1C` | 15.37 | -10.02 |
| `COCCNS(=O)(=O)c1ccc2c(c1)CCN(C(=O)c1cncn1C)C2` | 10.65 | 91.56 |
| `CS(=O)(=O)N1CCC(Oc2cnccn2)CC1` | 20.18 | 25.79 |
| `CCN1CCC(CC(=O)N(C)C(C)c2cncs2)CC1` (configuration not stated) | -33.59 | -45.82 |
| `CCc1nnc(CS(=O)(=O)c2ccc(C)cc2)n1C` | -1.311 | -20.28 |
| `COc1cccc(CSCC2=Nc3ccccc3S(=O)(=O)N2)c1` | - | 2.727 |
| `C1CCC(CNC2CCCN(Cc3noc(C4CC4)n3)C2)CC1` (configuration not stated) | - | 15.45 |
| `O=C(O)C(F)(F)F.[H][C@@]12COC[C@]1(COCC1CC1)CN(Cc1cnn(C)c1)C2` | -14.53 | 43.6 |
| `O=C(O)[C@@H]1CN(CC2CCC2)C[C@H]1c1ccc(F)cc1` | -15.48 | -8.146 |
| `Cc1noc(CN(C)C(=O)c2n[nH]c(N)c2-c2ccccc2)n1` | -2.344 | 3.64 |
| `O=C(c1cc(-c2ccco2)cs1)N1CCCC1` | 81.62 | 37.79 |
| `CNc1nc2c(c(C(=O)N3CCCC3)n1)CN(C(=O)CCSC)CC2` | 10.25 | -6.048 |
| `Cc1nc(C)n(CC2CCCN2CC(=O)NCCC2=CCCCC2)n1` (configuration not stated) | -23.3 | 18.5 |
| `c1cc(CN2CCCC(c3nnc(-c4cnccn4)o3)C2)ccn1` (configuration not stated) | -8.23 | 9.741 |
| `[H][C@@]12CCCO[C@]1([H])[C@H](N1CCOCC1)CN(C(=O)c1cccn1C)C2` | 11.57 | 3.007 |
| `Cc1cc(C2CCCN(CCCS(C)(=O)=O)C2)n[nH]1` (configuration not stated) | -30.38 | -8.396 |
| `O=C(O)C(F)(F)F.[H][C@@]12CN(c3cc(OC)ncn3)CCC[C@]1(C(=O)O)CN(C(C)C)C2` | 25.59 | -4.807 |
| `[H][C@@]12COC[C@H](c3nc(C)no3)[C@]1([H])CN(C(=O)Cc1ccccc1F)C2` | 18.09 | -21.4 |
| `COc1cccc(-c2noc(C3CCN(Cc4ccccc4F)C3)n2)c1.Cl` (configuration not stated) | -72.84 | -43.3 |
| `[H][C@]12CCN(C(C)=O)CC[C@@]1([H])S(=O)(=O)N(CCOC)C2` | 26.68 | -16.81 |
| `Cc1nc(CN2CCCN(C(=O)c3c(C)oc(C)c3C)CC2)cs1` | - | 9.644 |
| `CN(C)c1nccc(C2CN(c3ccccc3)CCO2)n1` (configuration not stated) | 59.44 | -4.362 |
| `O=C(O)C(F)(F)F.O=C(O)C(F)(F)F.[H][C@@]12COC[C@]1([H])[C@@H](OCCN(C)C)CN2Cc1ccco1` | -0.3956 | 15.12 |
| `COc1cccc(CNCC2CN(C)CCO2)c1` (configuration not stated) | 10.27 | -13.79 |
| `O=C(NCCCn1cccn1)N1CCCC1c1cccs1` (configuration not stated) | 17.89 | -26.26 |
| `CC(C)(C)OC(=O)N1CCCN(c2nnc(C3CC3)s2)CC1` | 10.54 | -25.48 |
| `Cc1cc(C)n(-c2cncc(N3CCC(C(=O)N(C)C)CC3)n2)n1` | -23.25 | -18.94 |
| `CC(=O)N1N=C(c2cccs2)OC1C(=O)NCCc1cccc(Cl)c1` (configuration not stated) | -45.42 | 62.85 |
| `COc1ccccc1CCN(C)C(=O)NC(C)c1nncn1C` (configuration not stated) | - | -9.442 |
| `COc1ccc2c(ccn2CCC(=O)/N=c2\[nH]nc(C3CCCO3)s2)c1` (configuration not stated) | 30.9 | -1.586 |
| `Cc1ncc2c(n1)CN(Cc1nc(-c3ccsc3)no1)CC2` | -3.966 | 2.584 |
| `CC(C)(C)C(O)CN1CCN(Cc2ccc(C#N)cc2)CC1` (configuration not stated) | - | -3.968 |
| `CS(=O)(=O)Nc1ccc([C@H]2OCC(=O)N[C@@H]2CO)cc1` | -3.08 | -19.61 |
| `CC(C)OCCCNC(=O)CC1(Cn2cnnn2)CCCCC1` | 30.68 | -6.294 |
| `Cn1ncc(N2CCC(CNC(=O)[C@@H](N)c3ccccc3)CC2)cc1=O` | -36.54 | 14.03 |
| `Cc1nc(NCCN2CCCC2=O)cc(C2CN(C)CCO2)n1` (configuration not stated) | -18.48 | -22.95 |
| `O=C(CCC1CCN(Cc2ccncc2)CC1)Nc1ccccc1Cl` | 6.017 | 6.968 |
| `O=C(NCc1ccccc1)NCC1CCN(Cc2ccsc2)CC1` | 33.58 | -3.36 |
| `COCC1CC2(CCN(c3cccc(C)n3)CC2)CN1C(C)C.O=C(O)C(F)(F)F.O=C(O)C(F)(F)F` (configuration not stated) | 1.996 | 24.58 |
| `CN(Cc1cccnc1N)Cc1cccc2ncccc12` | - | 8.811 |
| `CC(C)Cc1noc(C2CCN(C(=O)c3cccs3)CC2)n1` | -0.7648 | -26.93 |
| `O=C(O)C(F)(F)F.[H][C@@]12CCN(C(=O)Cc3cccs3)C[C@]1([H])[C@@H](CN(C)C)OC2` | -3.708 | -3.393 |
| `CC(C)(C)C(=O)N1CCCC1c1nccnc1Cl` (configuration not stated) | -14.62 | 10.9 |
| `CCOC(=O)C1CN(S(=O)(=O)C2CC2)Cc2ncn(CC)c21` (configuration not stated) | -11.65 | -15.26 |
| `CSCC(C)(O)CNC(=O)Nc1ccc(C)cc1Br` (configuration not stated) | - | -6.659 |

Some entries from above, unchanged:

| structure | A | B |
|---|---|---|
| `O=C(O)C(F)(F)F.[H][C@@]12CCN(c3nnc(C)s3)C[C@]1([H])O[C@H](C(=O)NC1CCCC1)C2` | -17.08 | -2.651 |
| `COc1cccc(CNCC2CN(C)CCO2)c1` (configuration not stated) | 10.27 | -13.79 |
| `Cc1cc(C)n(-c2cncc(N3CCC(C(=O)N(C)C)CC3)n2)n1` | -23.25 | -18.94 |
| `Cn1ncc(N2CCC(CNC(=O)[C@@H](N)c3ccccc3)CC2)cc1=O` | -36.54 | 14.03 |
| `CC(=O)N1N=C(c2cccs2)OC1C(=O)NCCc1cccc(Cl)c1` (configuration not stated) | -45.42 | 62.85 |